Assay results reported in PMC10478824, “Development of FAPI Tetramers to Improve Tumor Uptake and Efficacy of FAPI Radioligand Therapy” (Journal of Nuclear Medicine, 2023).

System: U87MG tumors
Assay: Small-animal static PET in U87MG tumor-bearing mice
Assay type: in vivo
Conditions: 1 h after injection
Procedure: All animal experimental procedures were approved by the Animal Care and Ethics Committee of Xiamen University and performed in accordance with the Guidelines for the Care and Use of Animals of the Xiamen University Laboratory Animal Center. For in vivo experiments, 6-wk-old BALB/c nude mice (Beijing Vital River Laboratory Animal Technology Co., Ltd.) were subcutaneously inoculated with HT-1080-FAP or U87 cells (5 × 10^6 in 100 μL of phosphate-buffered saline) in the right shoulder.
Dynamic PET, static PET (with or without competition), and SPECT scans with radiolabeled monomeric, dimeric, and tetrameric FAPIs were performed on HT-1080-FAP tumor–bearing mice for pharmacokinetic evaluation. Additionally, static PET with ^68Ga-labeled monomeric, dimeric, and tetrameric FAPIs was performed and compared in U87MG tumor–bearing mice.
Approximately 7.4 MBq of ^68Ga-DOTA-4P(FAPI)4 was intravenously injected into HT-1080-FAP tumor–bearing mice (n = 3) for the 60-min dynamic PET. For multiple-time-point static PET (0.5, 1, 2, and 4 h after injection), 7.4 MBq of ^68Ga-FAPI-46, ^68Ga-DOTA-2P(FAPI)2, or ^68Ga-DOTA-4P(FAPI)4 were injected into HT-1080-FAP and U87MG tumor–bearing mice (3/group). For longer-term observation, HT-1080-FAP tumor–bearing mice were intravenously injected with 7.4 MBq of ^64Cu-NOTA-2P(FAPI)2 or ^64Cu-NOTA-4P(FAPI)4 (3/group). […]

SMILES: CN(CCCN1CCN(C(=O)COCCOCCOCCNC(=O)CCC(=O)NCCCC[C@H](NC(=O)CCC(=O)NCCOCCOCCOCC(=O)N2CCN(CCCN(C)c3ccc4nccc(C(=O)NCC(=O)N5CC(F)(F)C[C@H]5C#N)c4c3)CC2)C(=O)NCCCC[C@H](NC(=O)[C@H](CCCCNC(=O)CN2CCN(CC(=O)[O-])CCN(CC(=O)[O-])CCN(CC(=O)[O-])CC2)NC(=O)CCC(=O)NCCOCCOCCOCC(=O)N2CCN(CCCN(C)c3ccc4nccc(C(=O)NCC(=O)N5CC(F)(F)C[C@H]5C#N)c4c3)CC2)C(=O)NCCOCCOCCOCC(=O)N2CCN(CCCN(C)c3ccc4nccc(C(=O)NCC(=O)N5CC(F)(F)C[C@H]5C#N)c4c3)CC2)CC1)c1ccc2nccc(C(=O)NCC(=O)N3CC(F)(F)C[C@H]3C#N)c2c1.[68Ga+3] [^68Ga-DOTA-4P(FAPI)4]
- tumor uptake relative to ^68Ga-DOTA-2P(FAPI)2: approximately 2 fold
- tumor uptake relative to ^68Ga-FAPI-46: more than 4 fold
